Reference: PubChem BioAssay AID1794845 (National Center for Advancing Translational Sciences (NCATS), 2023)
The campaign covered roughly 6,900 compounds. Fewer than 10 were called active. The call rests on the fitted dose curve; in most records, active means well fitted curve in the direction sought with a large enough effect; inconclusive means small, poorly fitted or top-dose-only effect, or another doubt; inactive means no such curve, though single readings can be large or run the other way. The list shows a part of the results.

Amino acid sequences for entries named in this document (tags omitted). A change or cut given only in a name is not applied to a line headed by its entry.
UniProt C7C422: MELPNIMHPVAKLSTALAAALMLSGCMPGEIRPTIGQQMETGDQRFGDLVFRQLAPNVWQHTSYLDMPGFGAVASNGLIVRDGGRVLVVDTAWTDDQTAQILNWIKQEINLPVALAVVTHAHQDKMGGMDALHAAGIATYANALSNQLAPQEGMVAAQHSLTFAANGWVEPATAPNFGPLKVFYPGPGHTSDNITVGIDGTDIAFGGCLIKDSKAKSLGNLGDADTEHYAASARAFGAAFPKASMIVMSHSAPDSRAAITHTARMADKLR

The compounds below were run against Metallo-beta-lactamase type 2 (Klebsiella pneumoniae) (UniProt C7C422) (assay: qHTS to identify inhibitors of the New Delhi Metallo-beta-lactamase (NDM): primary screen against the NCATS Gemini Collection). Details: NDM-1 enzyme, meropenem hydrolysis, absorbance 300 nm; at 38.4 µM (top of the series) unless noted.
Outline: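 NDM-1 at 2 nM final in 50 mM HEPES pH 7.0, 1 uM ZnSO4, 0.01% Tween20, preincubated >30 min with compound. Meropenem 50 uM final added; absorbance at 300 nm after 30 min.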
Further: % of control where 0% means no effect.

Activity % (negative = inhibition), inactive:
Cc1cc(C)c(CNC(=O)c2cccc(CCC(C)(C)O)c2)cn1 2.12%
COCCn1c(C)cc(C(=O)N2CCCCCCNC(=O)CC2)c1C -0.0422%
O=C(CCc1c[nH]c2ccccc12)N1CC(N(Cc2ccccc2)C2CCOCC2)C1 10.9%
CS(=O)(=O)N1C[C@@H](Oc2ccccc2)C[C@H]1C(=O)N1CCCC1 -0.651%
O=C1CCN(C(=O)[C@H](Cc2ccccc2)NC(=O)c2ccoc2)CCCOCCN1 22.6%
COc1ccccc1NC(=O)N1CCN2C(=O)NC[C@H]2C1 -0.569% [at 77.1 µM]
Cc1ccc(OCC(=O)N2CCC3(CC2)N=C(c2ccc(C)cc2)NO3)cc1 -0.0167%
CC(=O)N1CCC(N[C@@H]2CO[C@H](CNS(=O)(=O)c3ccccc3)[C@H]2O)CC1 -7.27% [at 57.5 µM]
Cc1nnc2n1CCC(N(C)C(=O)NC1CCCC1)CC2 (stereo not drawn) 0.266%
COc1ccccc1CN1CC(c2noc(CCC(=O)c3ccc(C)cc3)n2)CC1=O (stereo not drawn) -0.958%
O=C(NCCCn1cccn1)c1ccccc1OC1CCN(Cc2ccccn2)CC1 12.9%
NC(=O)Cn1ccn2nc3c(c2c1=O)CCCC3 2.4%
CN(Cc1ccccc1)Cc1cc(C[C@@H]2C[C@H](NC(=O)C3CCC3)C2(C)C)no1 20.3% [at 57.5 µM]
CC(C)NC(=O)NC[C@H]1OC[C@@H](NCc2cnc[nH]2)[C@@H]1O -0.0066% [at 57.5 µM]
O=C(c1ccccn1)N1CC(CO)C2(CCNCC2)C1 (stereo not drawn) 23.5%
COCC1(C(=O)N2C[C@@H](C(=O)O)[C@H](c3ccccc3OC)C2)CCC1 7.28%
CC(C)NC(=O)CN1C(=O)NC(c2ccc(Cl)cc2)C2=C1COC2=O (stereo not drawn) 0.0502%
CCOC(=O)N1CCC(Oc2cnc3c(ccn3-c3cncnc3)c2)CC1 37.7% [at 57.5 µM]
O=C(O)CC1NCCNC1=O (stereo not drawn) 22.3%
CN1[C@@H](CCC(=O)N2CCN(c3ccccn3)CC2)CNC(=O)[C@@H]2[C@H]1CCN2Cc1ncc[nH]1 8.77%
CNC(=O)c1ccc(NC(=O)c2nc(C(O)c3ccccc3F)oc2C)cc1 (stereo not drawn) 27.5% [at 57.5 µM]
O=c1cc(-c2ccncc2)nc(-c2ccc(CN3CC[C@@H](O)C3)cc2)[nH]1 13%
Cc1nc(CN2CCOc3cc([S+](=O)([O-])N(C)C)ccc3C2)cs1 -0.929% [at 57.5 µM]

Arranged by molecular weight (rising): 3 of the compounds above
Activity % (negative = inhibition), inactive:
CC(C)NC(=O)CN1C(=O)NC(c2ccc(Cl)cc2)C2=C1COC2=O (stereo not drawn) 0.0502%
CC(=O)N1CCC(N[C@@H]2CO[C@H](CNS(=O)(=O)c3ccccc3)[C@H]2O)CC1 -7.27% [at 57.5 µM]
O=C(CCc1c[nH]c2ccccc12)N1CC(N(Cc2ccccc2)C2CCOCC2)C1 10.9%
